# Measured values reported in paper PMC12643979.
# Where a chain is given by its changes, count along the chain named. No constants are given. Whether binding was seen depends on the method and setting. In cells and extracts the contact can be indirect. Some entries that bind do so weakly or less than the wild type. Tags and fused reporters may be left off the sequences shown.
# T1: GFP-Rab29 Q67L (human (cDNA from HEK293T)) (UniProt O14966)
# T1 sequence: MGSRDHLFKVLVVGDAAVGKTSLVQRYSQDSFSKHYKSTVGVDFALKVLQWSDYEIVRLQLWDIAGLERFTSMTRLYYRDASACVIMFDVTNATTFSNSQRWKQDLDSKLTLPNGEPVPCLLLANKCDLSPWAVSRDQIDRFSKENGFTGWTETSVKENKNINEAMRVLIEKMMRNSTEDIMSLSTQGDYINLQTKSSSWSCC
# T2: GFP-tagged Rab29 WT (human (cDNA from HEK293T)) (UniProt O14966)
# T2 sequence: T1 sequence with L67Q
# T3: GFP-Rab29 T21N (human (cDNA from HEK293T)) (UniProt O14966)
# T3 sequence: T1 sequence with T21N, L67Q
# B1: Flag-tagged TBC1D9 (protein, UniProt Q6ZT07 1-1266)
# chain: MWVNPEEVLLANALWITERANPYFILQRRKGHAGDGGGGGGLAGLLVGTLDVVLDSSARVAPYRILYQTPDSLVYWTIACGGSRKEITEHWEWLEQNLLQTLSIFENENDITTFVRGKIQGIIAEYNKINDVKEDDDTEKFKEAIVKFHRLFGMPEEEKLVNYYSCSYWKGKVPRQGWMYLSINHLCFYSFLMGREAKLVIRWVDITQLEKNATLLLPDVIKVSTRSSEHFFSVFLNINETFKLMEQLANIAMRQLLDNEGFEQDRSLPKLKRKSPKKVSALKRDLDARAKSERYRALFRLPKDEKLDGHTDCTLWTPFNKMHILGQMFVSTNYICFTSKEENLCSLIIPLREVTIVEKADSSSVLPSPLSISTRNRMTFLFANLKDRDFLVQRISDFLQQTTSKIYSDKEFAGSYNSSDDEVYSRPSSLVSSSPQRSTSSDADGERQFNLNGNSVPTATQTLMTMYRRRSPEEFNPKLAKEFLKEQAWKIHFAEYGQGICMYRTEKTRELVLKGIPESMRGELWLLLSGAINEKATHPGYYEDLVEKSMGKYNLATEEIERDLHRSLPEHPAFQNEMGIAALRRVLTAYAFRNPNIGYCQAMNIVTSVLLLYAKEEEAFWLLVALCERMLPDYYNTRVVGALVDQGVFEELARDYVPQLYDCMQDLGVISTISLSWFLTLFLSVMPFESAVVVVDCFFYEGIKVIFQLALAVLDANVDKLLNCKDDGEAMTVLGRYLDSVTNKDSTLPPIPHLHSLLSDDVEPYPEVDIFRLIRTSYEKFGTIRADLIEQMRFKQRLKVIQTLEDTTKRNVVRTIVTETSFTIDELEELYALFKAEHLTSCYWGGSSNALDRHDPSLPYLEQYRIDFEQFKGMFALLFPWACGTHSDVLASRLFQLLDENGDSLINFREFVSGLSAACHGDLTEKLKLLYKMHVLPEPSSDQDEPDSAFEATQYFFEDITPECTHVVGLDSRSKQGADDGFVTVSLKPDKGKRANSQENRNYLRLWTPENKSKSKNAKDLPKLNQGQFIELCKTMYNMFSEDPNEQELYHATAAVTSLLLEIGEVGKLFVAQPAKEGGSGGSGPSCHQGIPGVLFPKKGPGQPYVVESVEPLPASLAPDSEEHSLGGQMEDIKLEDSSPRDNGACSSMLISDDDTKDDSSMSSYSVLSAGSHEEDKLHCEDIGEDTVLVRSGQGTAALPRSTSLDRDWAITFEQFLASLLTEPALVKYFDKPVCMMARITSAKNIRMMGKPLTSASDYEISAMSG
# What was measured:
# Experiment in all cases: co-IP; HeLa cells co-transfected with FLAG-TBC1D9 and GFP-Rab29 or mutants, 48 h; basal, or stimulated with poly(dA:dT) or infected with GAS; lysis in 50 mM Tris-HCl pH 8.0, 120 mM NaCl, 1% NP-40, 50 mM NaF; GFP-Trap beads 2 h at 4°C, five washes, anti-Flag immunoblot
# [1] = molecular target: T1, GFP-Rab29 Q67L (human (cDNA from HEK293T))
# [2] = molecular target: T2, GFP-tagged Rab29 WT (human (cDNA from HEK293T))
# [3] = molecular target: T3, GFP-Rab29 T21N (human (cDNA from HEK293T))
binder,measurement,setting,value
B1,binding,[1],binds
same,binding,[2],binds
same,binding,[3],binds weakly
